Assay in all cases: co-IP; HEK293T cells co-transfected with Myc-tagged TEKT1, 2, 3 or 4 and Flag-TEKTIP1; Pierce IP Lysis Buffer; precipitated with Myc-Tag antibody and Protein A/G agarose at 4 C; blotted with anti-Flag
In assay [1] the target is T1, Myc-tagged TEKT2 (UniProt Q922G7).
T1 sequence: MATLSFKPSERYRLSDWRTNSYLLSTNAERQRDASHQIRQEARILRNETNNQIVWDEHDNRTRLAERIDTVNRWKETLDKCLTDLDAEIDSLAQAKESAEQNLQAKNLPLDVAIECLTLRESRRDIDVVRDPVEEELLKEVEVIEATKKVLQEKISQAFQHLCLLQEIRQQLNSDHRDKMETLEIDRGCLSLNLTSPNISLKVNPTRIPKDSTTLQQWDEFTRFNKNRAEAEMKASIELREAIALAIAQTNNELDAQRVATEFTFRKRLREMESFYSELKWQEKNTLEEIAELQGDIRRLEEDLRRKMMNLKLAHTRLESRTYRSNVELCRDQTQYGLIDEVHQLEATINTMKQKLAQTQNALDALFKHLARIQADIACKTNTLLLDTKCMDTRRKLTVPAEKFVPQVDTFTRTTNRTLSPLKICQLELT

For assay [2], the target named is T2, Myc-tagged TEKT4 (UniProt Q149S1).
T2 sequence: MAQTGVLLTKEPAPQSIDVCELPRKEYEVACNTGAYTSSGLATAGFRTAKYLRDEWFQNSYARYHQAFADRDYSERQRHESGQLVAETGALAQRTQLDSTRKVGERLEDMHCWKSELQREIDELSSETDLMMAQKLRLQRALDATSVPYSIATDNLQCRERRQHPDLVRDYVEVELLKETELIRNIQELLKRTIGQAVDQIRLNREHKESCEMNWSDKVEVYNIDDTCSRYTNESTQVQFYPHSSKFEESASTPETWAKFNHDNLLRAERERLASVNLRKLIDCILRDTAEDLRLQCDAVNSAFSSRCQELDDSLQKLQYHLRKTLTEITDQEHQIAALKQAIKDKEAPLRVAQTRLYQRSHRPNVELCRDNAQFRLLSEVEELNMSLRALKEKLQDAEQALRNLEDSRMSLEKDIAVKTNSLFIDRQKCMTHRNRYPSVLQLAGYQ

Assay [3] deals with T3, Myc-tagged TEKT3 (UniProt Q6X6Z7).
T3 sequence: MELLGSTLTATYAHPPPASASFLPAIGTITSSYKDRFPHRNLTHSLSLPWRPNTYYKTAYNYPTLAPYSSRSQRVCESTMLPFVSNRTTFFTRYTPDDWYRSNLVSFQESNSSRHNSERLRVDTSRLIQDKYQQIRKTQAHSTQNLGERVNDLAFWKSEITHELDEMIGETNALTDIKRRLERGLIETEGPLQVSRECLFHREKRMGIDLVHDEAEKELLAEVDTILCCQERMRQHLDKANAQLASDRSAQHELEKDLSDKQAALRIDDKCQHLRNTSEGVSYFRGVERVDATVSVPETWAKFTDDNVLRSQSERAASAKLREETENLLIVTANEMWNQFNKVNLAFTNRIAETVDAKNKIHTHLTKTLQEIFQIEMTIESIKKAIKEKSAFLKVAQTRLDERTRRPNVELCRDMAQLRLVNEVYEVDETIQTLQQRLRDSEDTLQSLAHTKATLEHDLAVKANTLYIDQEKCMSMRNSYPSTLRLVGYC

No constants are given. Whether binding was seen depends on the method and setting. In cells and extracts the contact can be indirect. For part of these data: Binding can be weak; no strength is given. Where a sequence is shown, tags or fusion partners need not be part of it.

The record followed here is PMC10917850.

Regarding Flag-tagged TEKTIP1, the binding result in assay [1] is given as “no binding”; in assay [2], “no binding”; in assay [3] it was “binds”.
